The assay has as its target GST-Hsc70 (amino acid residues 540-650) (UniProt P11142). The experiment in a line: GST pulldown on glutathione-Sepharose beads, immunoblot.

Chains of the proteins cited; added tags and fusions are not shown. Residues count along the entry.
UniProt P11142, residues 540-646: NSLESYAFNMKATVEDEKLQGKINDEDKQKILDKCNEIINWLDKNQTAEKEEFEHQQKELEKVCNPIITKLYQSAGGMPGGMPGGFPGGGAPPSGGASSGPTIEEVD
UniProt P25685: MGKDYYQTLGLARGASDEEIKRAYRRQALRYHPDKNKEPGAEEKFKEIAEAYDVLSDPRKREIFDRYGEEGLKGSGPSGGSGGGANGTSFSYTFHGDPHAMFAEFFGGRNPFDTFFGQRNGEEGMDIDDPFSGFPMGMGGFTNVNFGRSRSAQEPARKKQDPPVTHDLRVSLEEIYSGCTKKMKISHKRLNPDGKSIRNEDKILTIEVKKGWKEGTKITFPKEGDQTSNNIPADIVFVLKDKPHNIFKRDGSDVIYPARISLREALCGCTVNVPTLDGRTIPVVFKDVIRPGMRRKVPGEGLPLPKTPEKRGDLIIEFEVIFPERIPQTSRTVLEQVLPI

These are yes or no findings as the source states them, for the method shown. In cells and extracts the contact can be indirect. Some results given as binding are weak or reduced against the parent protein; the word gives no strength.

For “Human Hsp40 (Stressgen) (from UniProt P25685 1-340)”, the binding result is recorded as “binds”.

These data come from patent US7094873.
